log2 fold change data for 39 targets are collected here from the supplement of paper PMC12819154, “High-throughput peptide-centric local stability assay extends protein–ligand identification to membrane proteins, tissues and bacteria” (Nature Structural & Molecular Biology, 2025).

Chains of the proteins cited; added tags and fusions are not shown. Lines headed by an entry give the natural chain unless they say otherwise; changes in a name come on top.
UniProt P17427, whole entry: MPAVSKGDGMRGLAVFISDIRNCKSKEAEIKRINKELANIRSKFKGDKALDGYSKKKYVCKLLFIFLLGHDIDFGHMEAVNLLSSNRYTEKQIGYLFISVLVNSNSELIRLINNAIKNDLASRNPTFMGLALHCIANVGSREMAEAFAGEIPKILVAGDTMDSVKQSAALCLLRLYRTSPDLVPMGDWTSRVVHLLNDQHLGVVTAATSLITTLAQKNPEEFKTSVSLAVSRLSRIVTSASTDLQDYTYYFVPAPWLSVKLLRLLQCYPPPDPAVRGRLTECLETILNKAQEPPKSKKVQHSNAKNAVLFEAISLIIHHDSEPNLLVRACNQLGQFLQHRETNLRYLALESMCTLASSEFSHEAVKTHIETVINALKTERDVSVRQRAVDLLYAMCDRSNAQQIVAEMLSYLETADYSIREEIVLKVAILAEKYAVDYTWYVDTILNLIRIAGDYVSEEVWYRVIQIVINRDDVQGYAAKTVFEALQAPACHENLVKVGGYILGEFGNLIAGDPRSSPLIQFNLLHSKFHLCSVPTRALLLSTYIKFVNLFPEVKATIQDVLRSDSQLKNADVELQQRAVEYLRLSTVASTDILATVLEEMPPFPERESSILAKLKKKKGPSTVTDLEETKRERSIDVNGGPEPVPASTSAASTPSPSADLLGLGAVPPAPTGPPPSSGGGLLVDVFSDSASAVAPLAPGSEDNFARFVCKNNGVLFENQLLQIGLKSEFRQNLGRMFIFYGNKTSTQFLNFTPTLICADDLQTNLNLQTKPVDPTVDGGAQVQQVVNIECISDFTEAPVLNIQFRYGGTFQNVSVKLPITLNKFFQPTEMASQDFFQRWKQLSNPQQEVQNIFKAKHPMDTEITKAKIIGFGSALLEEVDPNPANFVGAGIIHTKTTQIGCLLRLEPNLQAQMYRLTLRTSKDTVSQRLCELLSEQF
UniProt P30355: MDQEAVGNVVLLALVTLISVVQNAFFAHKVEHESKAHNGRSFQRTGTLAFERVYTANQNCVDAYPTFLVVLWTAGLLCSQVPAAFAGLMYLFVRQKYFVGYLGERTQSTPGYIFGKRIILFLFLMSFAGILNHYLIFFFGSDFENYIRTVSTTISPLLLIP
UniProt P18760, whole entry: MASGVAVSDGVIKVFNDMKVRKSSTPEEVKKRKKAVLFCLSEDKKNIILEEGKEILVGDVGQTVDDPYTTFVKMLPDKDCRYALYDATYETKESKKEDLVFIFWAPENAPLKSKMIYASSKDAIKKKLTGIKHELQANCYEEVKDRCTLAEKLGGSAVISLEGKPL
UniProt P29351: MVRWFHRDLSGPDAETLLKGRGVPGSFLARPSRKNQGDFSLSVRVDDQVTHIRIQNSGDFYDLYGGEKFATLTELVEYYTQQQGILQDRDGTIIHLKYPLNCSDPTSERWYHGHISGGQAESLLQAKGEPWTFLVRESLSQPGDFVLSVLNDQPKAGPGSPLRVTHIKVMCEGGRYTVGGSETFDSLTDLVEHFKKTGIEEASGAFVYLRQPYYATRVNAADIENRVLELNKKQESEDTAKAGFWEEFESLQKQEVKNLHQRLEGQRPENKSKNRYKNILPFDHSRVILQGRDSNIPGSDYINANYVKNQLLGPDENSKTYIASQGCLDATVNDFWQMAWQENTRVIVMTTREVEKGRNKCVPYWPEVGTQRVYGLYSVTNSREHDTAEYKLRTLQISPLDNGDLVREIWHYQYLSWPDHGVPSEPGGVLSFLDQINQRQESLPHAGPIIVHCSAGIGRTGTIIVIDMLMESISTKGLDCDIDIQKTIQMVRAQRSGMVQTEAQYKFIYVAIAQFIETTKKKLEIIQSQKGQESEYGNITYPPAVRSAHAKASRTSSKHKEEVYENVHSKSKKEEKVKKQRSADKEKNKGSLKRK
UniProt P19258: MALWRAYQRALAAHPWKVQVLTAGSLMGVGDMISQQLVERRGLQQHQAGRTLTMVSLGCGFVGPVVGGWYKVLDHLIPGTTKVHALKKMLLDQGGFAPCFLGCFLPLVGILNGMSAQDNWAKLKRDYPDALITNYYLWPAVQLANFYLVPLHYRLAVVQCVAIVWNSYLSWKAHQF
UniProt P20152, whole entry: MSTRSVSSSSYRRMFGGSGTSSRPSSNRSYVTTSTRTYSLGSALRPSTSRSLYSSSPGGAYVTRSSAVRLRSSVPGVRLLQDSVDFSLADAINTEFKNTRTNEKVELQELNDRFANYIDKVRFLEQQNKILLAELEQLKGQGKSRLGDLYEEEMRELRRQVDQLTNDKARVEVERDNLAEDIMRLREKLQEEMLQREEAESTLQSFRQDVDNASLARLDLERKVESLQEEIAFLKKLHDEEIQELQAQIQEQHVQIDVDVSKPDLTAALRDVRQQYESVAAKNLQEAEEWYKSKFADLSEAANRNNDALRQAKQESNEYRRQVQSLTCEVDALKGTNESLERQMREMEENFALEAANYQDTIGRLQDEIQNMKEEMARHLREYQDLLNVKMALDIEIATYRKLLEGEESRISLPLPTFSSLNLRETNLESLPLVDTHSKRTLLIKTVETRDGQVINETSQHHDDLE
UniProt P23116, whole entry: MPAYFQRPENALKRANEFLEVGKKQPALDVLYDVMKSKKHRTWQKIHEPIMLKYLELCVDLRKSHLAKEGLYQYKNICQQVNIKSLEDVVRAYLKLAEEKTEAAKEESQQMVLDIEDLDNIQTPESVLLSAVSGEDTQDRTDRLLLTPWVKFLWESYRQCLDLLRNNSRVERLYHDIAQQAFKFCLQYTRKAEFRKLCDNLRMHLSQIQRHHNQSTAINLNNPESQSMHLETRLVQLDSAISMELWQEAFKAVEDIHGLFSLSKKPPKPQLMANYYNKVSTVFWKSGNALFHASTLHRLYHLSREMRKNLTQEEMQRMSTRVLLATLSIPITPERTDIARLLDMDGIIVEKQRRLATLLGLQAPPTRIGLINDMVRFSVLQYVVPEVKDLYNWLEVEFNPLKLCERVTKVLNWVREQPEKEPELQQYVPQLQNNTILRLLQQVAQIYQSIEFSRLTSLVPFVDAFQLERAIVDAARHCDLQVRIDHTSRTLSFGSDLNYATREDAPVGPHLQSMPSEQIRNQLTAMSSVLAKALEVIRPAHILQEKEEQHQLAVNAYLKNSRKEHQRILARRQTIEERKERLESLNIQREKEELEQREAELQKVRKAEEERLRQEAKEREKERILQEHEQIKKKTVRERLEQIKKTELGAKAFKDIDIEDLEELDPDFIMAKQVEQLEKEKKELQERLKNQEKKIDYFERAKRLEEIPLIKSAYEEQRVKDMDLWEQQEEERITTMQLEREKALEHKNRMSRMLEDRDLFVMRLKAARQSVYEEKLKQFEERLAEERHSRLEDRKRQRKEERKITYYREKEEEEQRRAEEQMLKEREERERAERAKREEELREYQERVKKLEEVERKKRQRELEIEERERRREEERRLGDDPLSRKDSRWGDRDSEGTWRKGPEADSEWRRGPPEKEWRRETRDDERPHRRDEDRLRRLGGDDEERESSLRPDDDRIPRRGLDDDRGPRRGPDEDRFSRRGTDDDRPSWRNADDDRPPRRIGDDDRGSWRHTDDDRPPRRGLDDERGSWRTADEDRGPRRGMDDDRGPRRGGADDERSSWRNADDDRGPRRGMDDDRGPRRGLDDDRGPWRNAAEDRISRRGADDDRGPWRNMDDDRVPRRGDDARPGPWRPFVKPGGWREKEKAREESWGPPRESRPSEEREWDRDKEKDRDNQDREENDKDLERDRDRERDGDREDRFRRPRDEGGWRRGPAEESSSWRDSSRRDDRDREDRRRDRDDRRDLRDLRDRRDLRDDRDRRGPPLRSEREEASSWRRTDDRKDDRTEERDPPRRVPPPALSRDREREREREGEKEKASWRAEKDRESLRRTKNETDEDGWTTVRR
UniProt P28574, whole entry: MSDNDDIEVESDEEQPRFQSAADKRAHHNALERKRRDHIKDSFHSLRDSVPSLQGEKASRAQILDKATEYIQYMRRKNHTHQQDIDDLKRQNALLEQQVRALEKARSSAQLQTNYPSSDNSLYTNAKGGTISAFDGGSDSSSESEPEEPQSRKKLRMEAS
UniProt P21279, whole entry: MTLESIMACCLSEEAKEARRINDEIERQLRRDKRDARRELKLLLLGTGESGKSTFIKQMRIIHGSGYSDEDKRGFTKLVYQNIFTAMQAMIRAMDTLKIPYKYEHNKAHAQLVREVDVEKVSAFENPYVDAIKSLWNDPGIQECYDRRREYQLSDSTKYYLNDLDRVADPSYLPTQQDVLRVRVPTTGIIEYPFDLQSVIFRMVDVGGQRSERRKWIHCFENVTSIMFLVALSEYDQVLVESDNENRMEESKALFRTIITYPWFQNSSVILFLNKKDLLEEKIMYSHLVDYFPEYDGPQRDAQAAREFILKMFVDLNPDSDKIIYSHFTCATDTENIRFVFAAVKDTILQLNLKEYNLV
UniProt P35293: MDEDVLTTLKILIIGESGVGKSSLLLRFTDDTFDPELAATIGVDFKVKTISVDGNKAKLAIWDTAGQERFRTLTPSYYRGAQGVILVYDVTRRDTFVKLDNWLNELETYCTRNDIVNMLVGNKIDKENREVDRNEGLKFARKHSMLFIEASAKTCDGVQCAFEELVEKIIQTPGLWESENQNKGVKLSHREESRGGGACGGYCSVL
UniProt P25688: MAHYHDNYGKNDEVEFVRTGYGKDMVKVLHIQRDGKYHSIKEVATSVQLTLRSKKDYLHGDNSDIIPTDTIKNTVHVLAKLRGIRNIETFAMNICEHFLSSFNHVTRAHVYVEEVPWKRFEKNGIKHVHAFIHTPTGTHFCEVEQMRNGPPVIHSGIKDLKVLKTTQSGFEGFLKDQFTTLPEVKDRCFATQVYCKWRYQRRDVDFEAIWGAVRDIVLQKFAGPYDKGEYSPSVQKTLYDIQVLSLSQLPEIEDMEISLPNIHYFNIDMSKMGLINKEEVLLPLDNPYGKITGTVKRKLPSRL
UniProt P16858: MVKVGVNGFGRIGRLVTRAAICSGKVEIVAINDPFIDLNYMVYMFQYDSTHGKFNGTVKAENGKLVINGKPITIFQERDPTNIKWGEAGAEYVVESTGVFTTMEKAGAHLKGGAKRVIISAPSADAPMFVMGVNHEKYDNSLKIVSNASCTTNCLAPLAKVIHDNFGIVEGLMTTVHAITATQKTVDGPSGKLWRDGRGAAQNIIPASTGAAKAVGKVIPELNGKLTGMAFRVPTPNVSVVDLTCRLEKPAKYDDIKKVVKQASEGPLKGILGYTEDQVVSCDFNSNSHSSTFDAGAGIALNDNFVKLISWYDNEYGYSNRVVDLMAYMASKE
UniProt P32848, whole entry: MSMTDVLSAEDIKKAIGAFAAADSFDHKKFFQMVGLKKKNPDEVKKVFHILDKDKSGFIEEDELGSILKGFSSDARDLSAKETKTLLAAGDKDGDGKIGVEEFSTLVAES
UniProt P21180: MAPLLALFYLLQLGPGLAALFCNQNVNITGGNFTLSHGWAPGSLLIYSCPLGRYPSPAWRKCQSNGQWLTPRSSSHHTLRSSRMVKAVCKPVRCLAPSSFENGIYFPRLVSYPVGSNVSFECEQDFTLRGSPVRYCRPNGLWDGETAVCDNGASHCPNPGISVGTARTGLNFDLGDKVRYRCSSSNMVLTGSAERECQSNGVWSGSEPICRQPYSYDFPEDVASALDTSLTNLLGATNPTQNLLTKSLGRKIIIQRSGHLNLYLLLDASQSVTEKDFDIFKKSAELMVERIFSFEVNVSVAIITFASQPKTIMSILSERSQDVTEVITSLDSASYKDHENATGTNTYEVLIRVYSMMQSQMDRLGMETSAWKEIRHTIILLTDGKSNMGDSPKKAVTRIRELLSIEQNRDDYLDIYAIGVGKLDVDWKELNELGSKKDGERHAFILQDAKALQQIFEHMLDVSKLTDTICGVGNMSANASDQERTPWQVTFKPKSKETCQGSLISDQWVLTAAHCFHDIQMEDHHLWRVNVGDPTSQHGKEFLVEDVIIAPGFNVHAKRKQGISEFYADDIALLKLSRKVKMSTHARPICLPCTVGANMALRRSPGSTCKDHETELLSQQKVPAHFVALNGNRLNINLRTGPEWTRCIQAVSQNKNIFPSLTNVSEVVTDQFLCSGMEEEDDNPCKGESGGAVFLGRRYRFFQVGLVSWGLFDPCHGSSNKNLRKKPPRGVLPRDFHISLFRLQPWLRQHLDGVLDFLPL
UniProt P28661: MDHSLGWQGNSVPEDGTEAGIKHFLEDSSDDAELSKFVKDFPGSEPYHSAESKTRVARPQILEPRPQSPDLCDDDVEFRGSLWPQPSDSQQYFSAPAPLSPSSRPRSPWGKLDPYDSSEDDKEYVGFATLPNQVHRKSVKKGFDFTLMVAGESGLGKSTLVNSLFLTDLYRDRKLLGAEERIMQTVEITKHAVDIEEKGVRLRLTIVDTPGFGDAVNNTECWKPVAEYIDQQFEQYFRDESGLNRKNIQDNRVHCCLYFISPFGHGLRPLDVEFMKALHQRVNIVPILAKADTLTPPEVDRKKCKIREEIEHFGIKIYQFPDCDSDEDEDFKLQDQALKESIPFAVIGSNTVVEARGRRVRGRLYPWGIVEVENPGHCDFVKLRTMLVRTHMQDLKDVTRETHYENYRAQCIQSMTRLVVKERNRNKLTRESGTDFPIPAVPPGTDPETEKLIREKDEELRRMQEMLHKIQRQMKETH

Some of the results follow. Most values lie at the level of the controls, where differences are scatter.

Compound in the assay: CN[C@@H]1C[C@H]2O[C@@](C)([C@@H]1OC)n1c3ccccc3c3c4c(c5c6ccccc6n2c5c31)C(=O)NC4 [staurosporine]
The experiment in a line: log2 fold change of tryptic peptide abundance, ligand vs vehicle (limited proteolysis) (log2 ratio); higher = more trypsin-susceptible (destabilized). As to conditions: ligand concentration: 20 uM; sample: mouse liver crude lysate; replicate design: treated separately.
Consider “UniProt P26450 (peptide sequence: IMHNHDKLK, peptide start residue: 524)”, for which the log2 fold change is 1.06.
Take “UniProt P35282 (peptide sequence: FNDKHITTLQASFLTK, peptide start residue: 42)”: the log2 fold change was -0.535.
The value for “UniProt P30051 (peptide sequence: IILSDEGK, peptide start residue: 58)” was 0.0643; that for “UniProt P29758 (peptide sequence: GLLNAIVIR, peptide start residue: 375)” was -0.214.
Take “UniProt P33173 (peptide sequence: VREHPLLGPYVEDLSK, peptide start residue: 168)”: the log2 fold change was 0.151.
The result for “UniProt P17427 (peptide sequence: ILVAGDTMDSVK, peptide start residue: 154)” reads -0.765.
The value for “UniProt P16381 (peptide sequence: SGKSPILVATAVAAR, peptide start residue: 489)” was -0.149; that for “UniProt P28028 (peptide sequence: NEVGVLRK, peptide start residue: 485)” was 0.468; that for “UniProt P30355 (peptide sequence: AHNGRSFQR, peptide start residue: 36)” was -0.27.
The value for “UniProt P18760 (peptide sequence: KSSTPEEVK, peptide start residue: 22)” was 0.19.
Turning to “UniProt P28076 (peptide sequence: AGAPTAGSFR, peptide start residue: 4)”, the log2 fold change is -0.0084.
On to “UniProt P17182 (peptide sequence: IGAEVYHNLK, peptide start residue: 184)”, for which the log2 fold change is 0.325.
For the target “UniProt P28235 (peptide sequence: ALAAIEHQMAK, peptide start residue: 126)”, the log2 fold change is -0.0712.
The result for “UniProt P17665 (peptide sequence: NLPFSVENK, peptide start residue: 26)” reads -0.158.
Take “UniProt P24547 (peptide sequence: FLEEIMTKR, peptide start residue: 174)”: the log2 fold change is 0.658.
The result for “UniProt P31649 (peptide sequence: ASGTTSNGETKPVCPAMEK, peptide start residue: 5)” reads -0.334; that for “UniProt P29351 (peptide sequence: DGTIIHLK, peptide start residue: 90)”, 0.244; that for “UniProt P33587 (peptide sequence: WIHSYIGEK, peptide start residue: 443)”, -0.399.
Take “UniProt P19258 (peptide sequence: ALAAHPWK, peptide start residue: 10)”: the log2 fold change is -0.0479.
The value for “UniProt P33215 (peptide sequence: NLEKFEKPEK, peptide start residue: 524)” was 0.307.
The result for “UniProt P18828 (peptide sequence: VEGGGTSVIK, peptide start residue: 181)” reads 0.136.
The value for “UniProt P29319 (peptide sequence: ASDGAAK, peptide start residue: 279)” was 0.165; that for “UniProt P20152 (peptide sequence: DGQVINETSQHHDDLE, peptide start residue: 451)” was -0.121.
For the target “UniProt P23798 (peptide sequence: RNGPLPLK, peptide start residue: 215)”, the log2 fold change came out at 0.242.
The result for “UniProt P26150 (peptide sequence: VLDKVFKPETR, peptide start residue: 34)” reads 0.155.
The value for “UniProt P23116 (peptide sequence: LLDMDGIIVEK, peptide start residue: 341)” was 0.166.
For “UniProt P28574 (peptide sequence: NHTHQQDIDDLKR, peptide start residue: 78)”, the log2 fold change amounted to 0.367.
Take “UniProt P21279 (peptide sequence: RINDEIER, peptide start residue: 20)”: the log2 fold change is -0.136.
The result for “UniProt P35293 (peptide sequence: EVDRNEGLK, peptide start residue: 130)” reads -0.123; that for “UniProt P27773 (peptide sequence: KFISDKDASVVGFFR, peptide start residue: 147)”, -0.495; that for “UniProt P25688 (peptide sequence: NTVHVLAK, peptide start residue: 73)”, -0.273.
The value for “UniProt P16858 (peptide sequence: VVDLMAYMASKE, peptide start residue: 322)” was 0.131; that for “UniProt P32848 (peptide sequence: TLLAAGDKDGDGK, peptide start residue: 85)” was 0.174; that for “UniProt P35295 (peptide sequence: QVQPEDAVALYKK, peptide start residue: 147)” was 0.151.
Take “UniProt P28660 (peptide sequence: SVLQPSQQK, peptide start residue: 4)”: the log2 fold change was -0.575.
Regarding “UniProt P28653 (peptide sequence: VPAGLPDLK, peptide start residue: 293)”, the log2 fold change is -0.316.
The result for “UniProt P35123 (peptide sequence: KPYLEPK, peptide start residue: 415)” reads -0.199.
The value for “UniProt P21180 (peptide sequence: SSSHHTLR, peptide start residue: 73)” was -0.613; that for “UniProt P28661 (peptide sequence: AQCIQSMTR, peptide start residue: 409)” was -0.175.
